A short description of data set [1]: Absorbance of chemical solution at 400 nm (OD400). The class given is physicochemical. Particulars: for 400 nm: Table 2, absorbance of chemical solution at 400 nm; for OD400: Table 3.
The nature of another data set: pH of chemical solution. In kind it is physicochemical.

As for `Cc1cccc(N)n1` [#0370, 2-Amino-6-methylpyridine], in data set [1], the 400 nm worked out at 0.064 and the OD400 worked out at 0.064. The pH in “pH of chemical solution” (Table 2, chemical solution) came out at 11.3. The pH in “pH of chemical solution” (Table 3) was found to be 11.3.

The compound `C1CN=C2CCCN2C1` [#0587, 1,5-Diazabicyclo[4.3.0]-5-nonene] displayed a 400 nm in data set [1] of 0.049. In data set [1], this compound showed an OD400 of 0.049. Besides, the pH in the data set “pH of chemical solution” (Table 2, chemical solution) came out at 12.6; in “pH of chemical solution” (Table 3), 12.6.
